Results are given in words; binding and its absence hold for the method and conditions named. Where a sequence is shown, tags or fusion partners need not be part of it.
Target: T1, BD-EXO70A1 (Arabidopsis thaliana) (UniProt Q9LZD3)
T1 sequence: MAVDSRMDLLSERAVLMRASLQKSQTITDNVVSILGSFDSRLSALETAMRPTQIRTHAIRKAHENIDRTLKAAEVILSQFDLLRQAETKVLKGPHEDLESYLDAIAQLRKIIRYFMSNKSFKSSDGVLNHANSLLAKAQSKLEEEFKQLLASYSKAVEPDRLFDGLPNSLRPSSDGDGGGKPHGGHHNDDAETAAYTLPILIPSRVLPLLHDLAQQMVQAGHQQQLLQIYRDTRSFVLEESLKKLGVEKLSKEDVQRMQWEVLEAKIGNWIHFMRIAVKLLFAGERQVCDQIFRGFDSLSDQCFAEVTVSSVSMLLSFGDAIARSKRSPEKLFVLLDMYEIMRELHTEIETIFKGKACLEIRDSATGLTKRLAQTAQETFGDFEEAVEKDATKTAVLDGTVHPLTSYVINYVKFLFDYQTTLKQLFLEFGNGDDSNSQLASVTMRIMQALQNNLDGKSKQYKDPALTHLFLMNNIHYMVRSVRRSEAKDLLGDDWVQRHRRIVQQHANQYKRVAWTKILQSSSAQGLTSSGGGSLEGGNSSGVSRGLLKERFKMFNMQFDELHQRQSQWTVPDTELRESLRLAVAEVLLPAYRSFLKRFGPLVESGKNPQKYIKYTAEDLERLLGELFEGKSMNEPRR
Experiment: two-hybrid

By UniProt entry, the sequences of proteins in these tests, tags left out. Where a name states a change or a piece, a line headed by the entry shows the natural chain unless it says otherwise.
UniProt Q9ZSD4: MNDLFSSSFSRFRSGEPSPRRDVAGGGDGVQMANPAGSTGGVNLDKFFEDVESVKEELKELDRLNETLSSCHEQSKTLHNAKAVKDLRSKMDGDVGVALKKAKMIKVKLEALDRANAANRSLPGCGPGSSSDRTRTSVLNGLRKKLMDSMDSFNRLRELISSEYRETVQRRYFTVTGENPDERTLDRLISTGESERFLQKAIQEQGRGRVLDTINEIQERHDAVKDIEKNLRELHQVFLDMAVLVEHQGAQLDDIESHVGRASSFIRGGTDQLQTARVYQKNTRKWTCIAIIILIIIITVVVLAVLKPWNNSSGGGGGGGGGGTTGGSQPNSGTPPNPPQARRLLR

**Q.** “AD-SYP121ΔC (from UniProt Q9ZSD4) (domain or fragment)” was tested. Which binding did it give?
**A.** no binding

Source: article doi:10.1101/2021.06.20.449050
